Results published in publication PMC2760858.

Molecular target: GST-hERK1 recombinant protein (human)
Assay: affinity purification with mass spectrometry; 1 µg GST-hERK1 or GST-null on GSH-agarose beads, 500 µg HeLa mitochondrial protein, 0.2% Triton X-100, 150 mM NaCl, 20 mM Tris-HCl pH 7.4, 1 mM EDTA, 1 mM EGTA, overnight at 4°C; SDS-PAGE, Coomassie, bands identified by MALDI-TOF-MS (histones also by LC-MS/MS); five independent pull-downs; only the target purified

binding: binds
B1: peroxiredoxin 3 (Prx3) (enzyme, UniProt P30048 62-256)
chain: APAVTQHAPYFKGTAVVNGEFKDLSLDDFKGKYLVLFFYPLDFTFVCPTEIVAFSDKANEFHDVNCEVVAVSVDSHFSHLAWINTPRKNGGLGHMNIALLSDLTKQISRDYGVLLEGSGLALRGLFIIDPNGVIKHLSVNDLPVGRSVEETLRLVKAFQYVETHGEVCPANWTPDSPTIKPSPAASKEYFQKVNQ

No constants are given. Whether binding was seen depends on the method and setting. In cells and extracts the contact can be indirect. A yes stands for co-enrichment or nearness to the bait. Other partners may have been found.
